Among the data in patent US4551453A, “2-(ω-Alkylaminoalkyl)- and 2-(ω-dialkylaminoalkyl-3-(4-X-benzylidene)-phthalimidines” (Laboratori Baldacci SpA, priority 1982, dated 1985) are LD50 values, retold here.

The nature of the data set: in vivo. The note with it: mouse, iv.

The LD50 is the dose at which mortality reaches 50%. High values mean lower toxicity, low ones greater toxicity.

On to `CCN(CC)CC(=O)Nc1c(C)cccc1C` [lidocaine], for which the 50% lethal dose (LD50) amounted to 32 mg/kg.
